The series in a line: Photoluminescence quantum yield. In kind it is physicochemical.

These results are taken from patent US10253255B2, “Phosphorescent nanoparticles and their uses in biosensing and bioimaging” (University of North Texas, priority 2015, dated 2019).

For Na8[Au(TPPTS)3] [AuP], the “relative photoluminescence quantum yield (RQY)” value (aqueous, vs. quinine sulfate) was determined as 4%.

For the substance M4[Pt2(P2O5H2)4].2H2O [Pt—POP], the phosphorescence quantum yield (deaerated (oxygen-free) aqueous solutions) is > 70%.
